These are yes or no findings as the source states them, for the method shown. In cells and extracts the contact can be indirect. Some entries that bind do so weakly or less than the wild type. For some of these results: Tags and fused reporters may be left off the sequences shown. Blank lines part the entries; values can stand above or below the molecule they belong to.
Tests used:
FBXW8-HA (human) = target: T1, FBXW8-HA (human) (UniProt Q8N3Y1); assay: co-IP; lysate of transfected HeLa cells (120 mM NaCl, 0.1% Triton X 100, 50 mM Tris-HCl pH 7.5); pulled with anti-FBXW8 antibody on Protein A-agarose, overnight at 4°C; immunoblot
T1 sequence: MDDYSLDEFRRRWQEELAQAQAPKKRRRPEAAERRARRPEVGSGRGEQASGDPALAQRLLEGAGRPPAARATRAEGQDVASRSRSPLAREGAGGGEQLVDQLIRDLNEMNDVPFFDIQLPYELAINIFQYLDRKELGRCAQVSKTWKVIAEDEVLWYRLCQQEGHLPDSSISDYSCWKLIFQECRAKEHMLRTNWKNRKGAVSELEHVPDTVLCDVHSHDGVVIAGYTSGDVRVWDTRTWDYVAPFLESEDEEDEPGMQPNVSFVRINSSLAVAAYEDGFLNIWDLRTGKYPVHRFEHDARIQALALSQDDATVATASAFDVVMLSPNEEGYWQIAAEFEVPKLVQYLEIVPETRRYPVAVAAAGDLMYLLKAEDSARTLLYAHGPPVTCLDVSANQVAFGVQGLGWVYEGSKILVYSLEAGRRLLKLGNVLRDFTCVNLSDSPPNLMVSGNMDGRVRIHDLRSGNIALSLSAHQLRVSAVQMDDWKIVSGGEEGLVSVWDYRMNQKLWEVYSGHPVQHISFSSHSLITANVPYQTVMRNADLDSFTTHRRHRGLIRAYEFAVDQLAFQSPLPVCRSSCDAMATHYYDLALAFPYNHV

Amino acid sequences for entries named in this document (tags omitted).
UniProt O60260: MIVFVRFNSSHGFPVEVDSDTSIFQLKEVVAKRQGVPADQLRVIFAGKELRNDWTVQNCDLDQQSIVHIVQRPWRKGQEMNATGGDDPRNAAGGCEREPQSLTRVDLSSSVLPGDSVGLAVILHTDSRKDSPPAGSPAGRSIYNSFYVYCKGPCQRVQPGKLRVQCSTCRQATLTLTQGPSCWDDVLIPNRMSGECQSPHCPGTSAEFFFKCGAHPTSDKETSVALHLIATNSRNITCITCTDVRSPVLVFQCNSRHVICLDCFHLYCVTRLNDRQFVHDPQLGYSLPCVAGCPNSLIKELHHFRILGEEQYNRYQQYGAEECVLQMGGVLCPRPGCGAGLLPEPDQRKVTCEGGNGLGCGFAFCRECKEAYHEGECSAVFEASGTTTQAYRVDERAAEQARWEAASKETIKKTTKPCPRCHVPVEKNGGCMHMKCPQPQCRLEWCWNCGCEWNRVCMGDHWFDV
UniProt Q99700: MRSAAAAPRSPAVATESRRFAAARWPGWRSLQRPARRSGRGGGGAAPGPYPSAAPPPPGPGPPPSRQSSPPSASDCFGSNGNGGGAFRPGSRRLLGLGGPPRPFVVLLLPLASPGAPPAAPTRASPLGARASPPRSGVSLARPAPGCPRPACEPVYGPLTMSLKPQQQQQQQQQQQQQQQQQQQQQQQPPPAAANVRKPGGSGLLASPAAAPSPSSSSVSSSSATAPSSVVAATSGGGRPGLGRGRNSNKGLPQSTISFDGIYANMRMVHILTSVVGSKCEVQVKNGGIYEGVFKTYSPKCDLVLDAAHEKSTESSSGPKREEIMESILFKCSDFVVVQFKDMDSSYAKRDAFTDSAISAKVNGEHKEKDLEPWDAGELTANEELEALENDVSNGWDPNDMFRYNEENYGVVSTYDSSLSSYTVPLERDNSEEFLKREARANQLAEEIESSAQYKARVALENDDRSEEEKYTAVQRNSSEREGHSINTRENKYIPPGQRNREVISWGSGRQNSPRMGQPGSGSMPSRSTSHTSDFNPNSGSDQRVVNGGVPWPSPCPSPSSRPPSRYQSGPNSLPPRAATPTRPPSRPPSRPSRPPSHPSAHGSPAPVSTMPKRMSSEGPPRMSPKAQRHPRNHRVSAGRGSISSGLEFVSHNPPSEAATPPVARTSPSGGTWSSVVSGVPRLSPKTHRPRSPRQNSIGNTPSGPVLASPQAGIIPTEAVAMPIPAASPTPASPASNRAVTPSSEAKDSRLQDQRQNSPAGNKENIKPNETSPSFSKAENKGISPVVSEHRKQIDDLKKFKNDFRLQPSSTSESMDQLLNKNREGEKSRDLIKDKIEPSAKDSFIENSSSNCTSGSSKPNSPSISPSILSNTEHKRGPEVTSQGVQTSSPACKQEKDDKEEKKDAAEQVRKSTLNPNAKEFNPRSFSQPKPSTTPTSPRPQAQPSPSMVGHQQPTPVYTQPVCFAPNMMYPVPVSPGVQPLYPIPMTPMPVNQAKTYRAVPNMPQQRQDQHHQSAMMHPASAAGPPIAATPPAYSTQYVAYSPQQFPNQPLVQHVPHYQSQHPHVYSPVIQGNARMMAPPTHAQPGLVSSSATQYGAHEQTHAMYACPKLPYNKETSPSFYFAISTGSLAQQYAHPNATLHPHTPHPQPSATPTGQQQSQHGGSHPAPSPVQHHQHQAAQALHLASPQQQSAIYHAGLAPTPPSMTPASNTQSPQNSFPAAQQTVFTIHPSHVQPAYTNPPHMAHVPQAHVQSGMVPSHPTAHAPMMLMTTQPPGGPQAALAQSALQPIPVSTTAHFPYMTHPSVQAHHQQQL

[1] = target: T2, endogenous ATXN2 of WT mouse cerebellum (mouse (endogenous in cerebellum)) (UniProt O70305); assay: co-IP; cerebellar lysate of WT and Atxn2-CAG42-KIN mice (NP40 buffer: 20 mM Tris-HCl pH 8.0, 137 mM NaCl, 0.1% Igepal CA-630, 2 mM EDTA); endogenous proteins; pulled with anti-ATXN2 antibody on Protein A-agarose, overnight at 4°C; immunoblot
T2 sequence: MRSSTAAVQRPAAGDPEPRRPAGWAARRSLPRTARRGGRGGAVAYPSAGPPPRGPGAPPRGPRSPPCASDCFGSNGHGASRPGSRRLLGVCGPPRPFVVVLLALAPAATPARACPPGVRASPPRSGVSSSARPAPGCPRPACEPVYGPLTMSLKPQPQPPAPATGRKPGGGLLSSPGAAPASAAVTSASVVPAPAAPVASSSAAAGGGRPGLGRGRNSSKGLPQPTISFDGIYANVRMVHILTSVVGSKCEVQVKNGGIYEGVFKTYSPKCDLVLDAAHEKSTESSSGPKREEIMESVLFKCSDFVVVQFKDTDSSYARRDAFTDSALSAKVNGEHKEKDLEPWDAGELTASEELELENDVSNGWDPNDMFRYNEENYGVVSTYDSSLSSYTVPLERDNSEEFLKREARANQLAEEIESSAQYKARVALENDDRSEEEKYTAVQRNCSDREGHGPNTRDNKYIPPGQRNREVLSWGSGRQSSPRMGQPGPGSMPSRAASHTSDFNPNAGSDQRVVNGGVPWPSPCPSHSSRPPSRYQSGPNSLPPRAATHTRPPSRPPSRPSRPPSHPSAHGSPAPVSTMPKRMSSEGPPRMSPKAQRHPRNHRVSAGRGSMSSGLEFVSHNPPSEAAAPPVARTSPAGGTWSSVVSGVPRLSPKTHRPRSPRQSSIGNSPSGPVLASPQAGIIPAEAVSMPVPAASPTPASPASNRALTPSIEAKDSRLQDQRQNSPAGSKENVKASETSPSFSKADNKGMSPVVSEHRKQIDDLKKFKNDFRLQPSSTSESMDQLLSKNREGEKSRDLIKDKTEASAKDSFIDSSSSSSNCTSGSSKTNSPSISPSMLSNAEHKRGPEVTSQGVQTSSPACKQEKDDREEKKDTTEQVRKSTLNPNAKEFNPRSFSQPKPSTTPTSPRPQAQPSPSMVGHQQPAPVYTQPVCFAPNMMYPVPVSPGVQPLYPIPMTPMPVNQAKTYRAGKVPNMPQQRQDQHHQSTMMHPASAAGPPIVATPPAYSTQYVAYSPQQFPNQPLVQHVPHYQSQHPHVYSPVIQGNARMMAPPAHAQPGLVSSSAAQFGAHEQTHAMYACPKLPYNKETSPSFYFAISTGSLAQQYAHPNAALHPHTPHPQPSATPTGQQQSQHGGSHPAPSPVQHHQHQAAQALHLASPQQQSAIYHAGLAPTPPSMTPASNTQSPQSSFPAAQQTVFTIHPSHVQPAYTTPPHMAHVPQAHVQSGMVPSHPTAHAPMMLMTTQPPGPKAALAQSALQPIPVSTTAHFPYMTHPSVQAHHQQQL

[2] = target: T3, endogenous FBXW8 of mouse cerebellum (mouse (endogenous in cerebellum)) (UniProt Q8BIA4); assay: co-IP; cerebellar lysate of WT and Atxn2-CAG42-KIN mice (NP40 buffer: 20 mM Tris-HCl pH 8.0, 137 mM NaCl, 0.1% Igepal CA-630, 2 mM EDTA); endogenous proteins; pulled with anti-FBXW8 antibody on Protein A-agarose, overnight at 4°C; immunoblot
T3 sequence: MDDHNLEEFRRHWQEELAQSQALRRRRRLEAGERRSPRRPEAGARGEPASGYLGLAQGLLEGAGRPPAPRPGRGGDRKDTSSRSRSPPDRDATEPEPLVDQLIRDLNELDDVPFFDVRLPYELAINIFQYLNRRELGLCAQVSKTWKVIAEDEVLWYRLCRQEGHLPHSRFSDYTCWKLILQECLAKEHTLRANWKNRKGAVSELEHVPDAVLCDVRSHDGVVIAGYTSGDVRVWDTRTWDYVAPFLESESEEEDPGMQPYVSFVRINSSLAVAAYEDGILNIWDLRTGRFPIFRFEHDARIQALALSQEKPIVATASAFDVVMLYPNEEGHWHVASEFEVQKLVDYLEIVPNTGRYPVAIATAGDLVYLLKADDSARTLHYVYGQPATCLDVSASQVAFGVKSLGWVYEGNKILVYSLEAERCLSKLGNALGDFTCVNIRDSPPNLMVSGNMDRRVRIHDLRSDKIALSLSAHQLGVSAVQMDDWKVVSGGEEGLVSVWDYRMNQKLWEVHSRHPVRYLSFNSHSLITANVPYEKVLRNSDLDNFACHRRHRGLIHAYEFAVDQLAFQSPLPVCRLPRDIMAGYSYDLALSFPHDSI

binding (FBXW8-HA (human)): binds
Molecule: GFP-Cherry-PARK2 (from UniProt O60260 1-465)

binding (FBXW8-HA (human)): binds
Molecule: endogenous wild-type ATXN2 of HeLa cells (from UniProt Q99700 1-1313)

binding [1]: binds
B1: endogenous FBXW8 of mouse cerebellum (protein, UniProt Q8BIA4 1-598)
chain: T3 sequence

binding [2]: binds
B2: endogenous ATXN2 of WT mouse cerebellum (protein, UniProt O70305 1-1285)
chain: T2 sequence

Source: paper PMC4366354
